Experimental data as given in the supplement of paper PMC12889115.
Some of the results follow. These are raw signals, not scaled to a control.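 In the initial screen, polymyxin B was used at a concentration that permeabilizes Salmonella's outer membrane but not its inner membrane. Maximum growth was set by DMSO wells with or without polymyxin B. Since plates varied, data were ranked per plate, and compounds giving the lowest OD600 advanced as hits.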

Tested on: Salmonella enterica serovar Typhimurium SL1344
Assay: bacterial growth OD600 after 18 h with compound and polymyxin B; higher = more bacterial growth (less inhibition)
Details: 50 µM, Mueller-Hinton broth

Compound	bacterial growth OD600 (polymyxin B 1 µg/mL)	bacterial growth OD600 (polymyxin B 0.75 µg/mL)
CC(Cc1cccs1)NC(=O)c1cc(Cn2ccnc2C(C)C)[nH]n1 (stereo not given)	0.99	–
Cc1cc(F)ccc1NC(=O)CCC1CCCN(Cc2cccnc2)C1 (stereo not given)	0.923	–
CC(C)(C)C(=O)NC1CCCc2nc(-c3ccccc3)ncc21 (stereo not given)	0.92	–
CCn1cncc1CN1CCC(C2CCN(Cc3ccc(Cl)cc3)C2)CC1 (stereo not given)	–	0.807
OCCN1CCN(Cc2ccc3c(c2)CN(CC2CC=CCC2)CCO3)CC1 (stereo not given)	–	0.825
Cn1ccnc1C1CCCCN1C(=O)CCc1nnc(CCCc2ccccc2)o1 (stereo not given)	0.9	–
CC#CCN1C(=O)NC(CCc2ccccc2)(C2CCN(Cc3ccc(OC)cc3)CC2)C1=O (stereo not given)	–	0.797
COc1ccc(OCc2cc(C(=O)NC3CCC3)n[nH]2)c(Cl)c1	–	0.854
O=C(CCC1CCN(C(=O)c2ccccn2)CC1)N1CCC(Cc2ccccc2)CC1	0.961	–
COCCNC1CCN(c2cccc(NC(=O)CCCc3ccccc3)c2)CC1	–	0.84
COc1ccccc1N1CCN(C2CCCN(C(=O)c3cn4ccsc4n3)C2)CC1 (stereo not given)	1.18	–
COc1cc(C(=O)NC2CC(=O)N(Cc3ccc(F)cc3)C2)ccc1C (stereo not given)	0.957	–
COc1ccc(CN2CCN(CCCn3cccn3)CC2CCO)c(C)c1C (stereo not given)	0.939	–
O=C(CC1CCCC1)NC1CCCc2nc(N3CCC(CO)CC3)ncc21 (stereo not given)	–	0.907
COCc1noc(-c2ccc(N(Cc3nccn3C)C(C)C)nc2)n1	–	0.853
O=C(NCc1cccnc1)C1CCCN(C2CCN(CC3CCCC3)CC2)C1 (stereo not given)	1.21	–
COC(=O)c1ccc(CN2CCCC(C(=O)c3cccc(OC)c3)C2)cc1 (stereo not given)	0.778	–
O=C(CCCc1cccs1)NC1CC(=O)N(Cc2ccccc2Cl)C1 (stereo not given)	0.86	–
Cc1ccc(CNC2CC(=O)N(C3Cc4ccccc4C3)C2)o1 (stereo not given)	1.06	–
O=C(Cn1nnnc1CN1CCCCCC1)N1CCCCC1CCN1CCOCC1 (stereo not given)	–	0.981

Not a retest: entries from further up.
Compound	bacterial growth OD600 (polymyxin B 1 µg/mL)	bacterial growth OD600 (polymyxin B 0.75 µg/mL)
Cc1cc(F)ccc1NC(=O)CCC1CCCN(Cc2cccnc2)C1 (stereo not given)	0.923	–
CC(C)(C)C(=O)NC1CCCc2nc(-c3ccccc3)ncc21 (stereo not given)	0.92	–
